Results: PubChem BioAssay AID540276 (National Center for Advancing Translational Sciences (NCATS), 2011)
In all, about 300,000 compounds went through this assay and about 5,400 (1.8%) were called active. Inconclusive results, whose numbers are uncertain, are shown with a selection of clear calls. Calls come from the whole dose curve; tested in HEK293 cells. Potencies beside an inconclusive call are fits to weak or partial responses and may not hold up.

Assay: qHTS for inhibitors of binding or entry into cells for Marburg Virus
Conditions: Marburg virus pseudotyped entry inhibition, cell reporter; activity change, negative = inhibition: at 37.8 µM (top of the series) unless noted
% is set by controls: 0 for no effect and ±100 for the full control effect; potency is the fitted concentration of half-maximal effect.

| Compound | activity change, negative = inhibition | Potency |
| --- | --- | --- |
| CCN1CCN(c2ncnc3c2sc(=S)n3-c2ccccc2)CC1 | inactive: 1.2% | – |
| CC(C)(C)NC(=O)CN(C(=O)Cn1nnc(-c2ccccc2F)n1)c1cccc2c1CCCC2 | – | inconclusive: 32.6 µM [inhibitor, single point] |
| CC1(C)NC(=O)N(CCOCCSc2ccccc2)C1=O | inactive: -1.23% | – |
| CN(C(=O)COC(=O)CNC(=O)CNC(=O)c1ccc(Cl)cc1Cl)c1ccccc1 | – | inconclusive: 1 µM [activator, full curve, poor fit] |
| O=C(NCc1nc(-c2ccc(C(F)(F)F)cc2)no1)Nc1ccc(F)cc1F | – | inconclusive: 6.31 µM [inhibitor, single point] |
| CCCCN(CC)c1nc(N)c(C#N)c(CC#N)c1C#N | – | inconclusive: 0.82 µM [inhibitor, full curve, poor fit] |
| CC(CCN1CCc2nc(-c3ccccc3)c(-c3ccccc3)cc2C1)=NOC[C@@H](O)COCc1ccco1 | – | inconclusive: 0.0299 µM [activator, full curve, poor fit] |
| COc1ccc(CN(C(=O)c2ccc(-c3ccccc3)[nH]2)C(C(=O)NCC2CCCO2)c2ccc(C)o2)cc1 (centres undefined) | – | inconclusive: 8.91 µM [inhibitor, single point] |
| COCCNS(=O)(=O)c1ccc(-c2ccc(Cl)cc2)cc1 | inconclusive: 17.2% [activator] [at 46.1 µM] | – |
| CCOc1ccc(NS(=O)(=O)c2ccc3c(c2)N(C(C)=O)CC3)cc1 | – | inconclusive: 3.16 µM [activator, single point] |
| CC(C)NC(=O)CCc1nnc(Cc2cccc(C(F)(F)F)c2)o1 | – | inconclusive: 14.1 µM [activator, single point] |
| COCCNC(=S)N1CCN(c2nc(-c3cccc(OC)c3)cs2)CC1 | – | inconclusive: 10 µM [inhibitor, partial curve, poor fit] |
| O=C(COC(=O)c1cncc(Br)c1)NC1CCCCCC1 | – | inconclusive: 4.47 µM [inhibitor, single point] |
| Cc1ccc(NC(=O)CCC(=O)Nc2ccc(C)cc2)cc1 | inactive: 1.82% | – |
| COc1ccc(-c2[nH]ncc2C2N=C(N)Nc3nc4ccccc4n32)cc1 (centres undefined) | – | inconclusive: 6.31 µM [inhibitor, single point] |
| COCCN1C(=O)/C(=C/c2ccc(Oc3ccc([N+](=O)[O-])cn3)c(OC)c2)SC1=Nc1ccccc1 | inactive: 1.3% | – |
| CN(C)S(=O)(=O)c1cccc(NC(=O)CCSc2ccc(Cl)cc2)c1 | – | inconclusive: 35.5 µM [inhibitor, single point] |
| C/C(=N\Nc1nc(-c2ccccc2)cs1)c1cccs1 | – | inconclusive: 2.91 µM [activator, partial curve, poor fit] |
| CNC(=S)Nc1ccc(-c2nc3ccc(C)cc3s2)cc1 | – | inconclusive: 10 µM [inhibitor, partial curve] |
| COc1ccc(NC(=O)C2CC(=O)OC2(C)C)cc1 (centres undefined) | inactive: 6.85% | – |
| CN(CC(=O)Nc1ccc(N2CCOCC2)cc1)C(=O)CCCOc1ccc(Cl)cc1Cl | – | inconclusive: 11.2 µM [inhibitor, partial curve, poor fit] |
| CC(CCc1ccccc1)NCCC#N (centres undefined) | – | inconclusive: 6.31 µM [activator, full curve, poor fit] |
| Cc1cc2c(=O)n(CC(=O)N3CCN(c4ccccc4)CC3)cnc2s1 | – | inconclusive: 35.5 µM [activator, single point] |

Pulled by compound from the entries so far:

| Compound | activity change, negative = inhibition | Potency |
| --- | --- | --- |
| COCCNS(=O)(=O)c1ccc(-c2ccc(Cl)cc2)cc1 | inconclusive: 17.2% [activator] [at 46.1 µM] | – |
| C/C(=N\Nc1nc(-c2ccccc2)cs1)c1cccs1 | – | inconclusive: 2.91 µM [activator, partial curve, poor fit] |
| COc1ccc(-c2[nH]ncc2C2N=C(N)Nc3nc4ccccc4n32)cc1 (centres undefined) | – | inconclusive: 6.31 µM [inhibitor, single point] |
| O=C(NCc1nc(-c2ccc(C(F)(F)F)cc2)no1)Nc1ccc(F)cc1F | – | inconclusive: 6.31 µM [inhibitor, single point] |

Remaining list, next part:

| Compound | activity change, negative = inhibition | Potency |
| --- | --- | --- |
| CC1CCN(S(=O)(=O)c2ccc(S(=O)(=O)NCc3ccccc3)cc2)CC1 | inactive: -1.58% | – |
| N#Cc1c(NC(=O)CSc2ncc(-c3ccccc3)n2CC2CCCO2)sc2c1CCCC2 (centres undefined) | – | active: 5.17 µM |
| CCc1cc2c(SCC(=O)NCC3CCCO3)ncnc2s1 (centres undefined) | – | inconclusive: 25.1 µM [inhibitor, single point] |
| O=C(CCS(=O)(=O)c1cccs1)N1CCCC1 | inactive: 11.1% | – |
| COC(=O)C1=C(C(=O)OC)[C@@H]2N(C)c3ccccc3[C@@]23CCC(=O)N(Cc2ccc4c(c2)OCO4)C3=N1 | – | inconclusive: 0.0944 µM [inhibitor, partial curve, poor fit] |
| COc1ccc(Nc2nccc3c2ncn3C)cc1 | – | inconclusive: 10 µM [inhibitor, partial curve, poor fit] |
| CCOc1ccc(C(=O)NCC(c2ccc(Cl)cc2)N2CCCCC2)cc1 (centres undefined) | – | inconclusive: 8.91 µM [inhibitor, partial curve, poor fit] |
| CCOC(=O)CSc1nc2cc(C)ccc2cc1C#N | – | inconclusive: 20.6 µM [inhibitor, single point] |
| CCN(Cc1ccccc1)CC(O)COc1ccccc1 (centres undefined) | – | inconclusive: 35.5 µM [inhibitor, single point] |
| CC(=O)Nc1ccc(NC(=O)c2c(-c3ccccc3Cl)noc2C)cc1 | inactive: 29.1% [at 46.1 µM] | – |
| COc1cccc(CNCCO)c1OCc1ccccc1Cl | – | inconclusive: 29.1 µM [inhibitor, single point] |
| C=CCN(c1ccccc1)S(=O)(=O)c1cccc(C(=O)N2CCN(c3ncccn3)CC2)c1 | – | inconclusive: 0.282 µM [inhibitor, full curve, poor fit] |
| CC(C)c1c(C(=O)N/N=C/c2cccnc2)nnn1-c1nonc1N | inactive: 2.76% [at 46.1 µM] | – |
| COc1ccc2nc(N3CCCC(C(=O)NCCCN4C(C)CCCC4C)C3)sc2c1 (centres undefined) | – | inconclusive: 35.5 µM [inhibitor, single point] |
| COc1ccccc1NC1=C(N2CCCCC2)C(=O)c2ccccc2C1=O | – | inconclusive: 14.1 µM [inhibitor, single point] |
| Cc1ccc2nc(NNC(=O)c3ccc(S(=O)(=O)N4CCc5ccccc5C4)cc3)sc2c1 | – | inconclusive: 23.1 µM [inhibitor, partial curve, poor fit] |
| C=CCn1c(O)c(/C=C2\C=NN=C2c2ccccc2)sc1=S | – | inconclusive: 7.08 µM [inhibitor, partial curve, poor fit] |
| Cc1ccc(-c2n[nH]c(=O)c3ccccc23)cc1S(=O)(=O)Nc1ccc(F)cc1 | – | inconclusive: 35.5 µM [inhibitor, single point] |
| CC(=O)N1c2ccc3ccccc3c2C(C)CC12CCCCC2 (centres undefined) | inactive: -6.54% | – |
| O=S(=O)(Nc1nc2ccccc2nc1N1CCc2ccccc2C1)c1ccc(Cl)cc1 | – | inconclusive: 20 µM [inhibitor, single point] |
| O=C(COC(=O)c1cc(Br)ccc1O)Nc1cc(S(=O)(=O)N2CCCC2)ccc1Cl | – | inconclusive: 35.5 µM [inhibitor, single point] |
| Nc1ccc(Oc2ccccc2-c2ccccc2)cc1 | – | active: 5.62 µM |
| COc1cccc(Oc2cncnc2-c2ccc(OC)cc2O)c1 | – | inconclusive: 0.501 µM [inhibitor, full curve, poor fit] |

| Compound | activity change, negative = inhibition | Potency |
| --- | --- | --- |
| Cc1cccc(NC(=O)C2CC(=O)NC(Nc3nc4ccccc4s3)=N2)c1 (centres undefined) | – | inconclusive: 0.0146 µM [inhibitor, full curve, poor fit] |
| COc1ccc(CNc2nc3c(c(=O)n(Cc4ccc(Br)cc4)c(=O)n3C)n2C)cc1 | – | inconclusive: 16.4 µM [inhibitor, partial curve, poor fit] |
| Cc1cc(C(=O)COC(=O)C2=COCCO2)c(C)n1-c1cccc(F)c1 | – | inconclusive: 31.6 µM [inhibitor, single point] |
| O=C(/C=C/c1ccc2c(c1)OCO2)c1cccnc1 | inactive: 0.421% [at 46.1 µM] | – |
| CC1CCN(CCCNS(=O)(=O)c2cc(Br)cc3c2N(C(=O)C2CC2)CC3)CC1 | inactive: -1.96% [at 46.1 µM] | – |
| COc1ccc(C)cc1N(C(=O)c1cccc(F)c1)c1nc2ccccc2s1 | inactive: 22.9% | – |
| CCCCOc1ccc(OC(=O)c2cccnc2)cc1 | inactive: -14% | – |
| CCCCN(C(=O)CSc1nc2ccccc2s1)c1c(N)n(CCCC)c(=O)[nH]c1=O | inactive: -18.6% | – |
| CN(C)CCN(Cc1ccco1)C(=O)c1cc2c(s1)-c1ccccc1OC2 | – | inconclusive: 35.5 µM [inhibitor, single point] |
| NC(=O)c1ccccc1NC(=O)c1cc(S(=O)(=O)N2CCCCC2)ccc1N1CCOCC1 | – | inconclusive: 14.1 µM [activator, partial curve, poor fit] |
| CCOC(=O)Cc1ncccc1C(=O)Nc1ccc(Oc2ccccc2)cc1 | – | inconclusive: 0.891 µM [inhibitor, full curve, poor fit] |
| CC(=O)N(/N=C1\Sc2ccccc2C1=O)c1ccc(C)cc1C | – | inconclusive: 14.1 µM [inhibitor, single point] |
| COC(=O)C1CSC(C(=O)OC)N1C(=O)Nc1ccccc1 (centres undefined) | – | inconclusive: 15.8 µM [activator, partial curve, poor fit] |
| COc1cc(/C=N/N=C2/NC(=O)C(CC(=O)O)S2)ccc1OCc1ccc(Cl)cc1 (centres undefined) | inactive: 48.2% | – |
| Cc1ccc(S(=O)(=O)n2c(N)nc3ccccc32)cc1 | inactive: -2.58% [at 46.1 µM] | – |
| CCSc1ccccc1C(=O)Nc1cccc(OC)c1 | – | inconclusive: 23.1 µM [activator, partial curve, poor fit] |
| COc1ccccc1-c1c(C)c(C)nc(N)c1C#N | inactive: 16.8% | – |
| C/C(=N\NC(=O)COc1ccccc1-c1ccccc1)c1cccnc1 | – | inconclusive: 35.5 µM [inhibitor, single point] |
| Cc1cccc(-n2nnc(C(=O)NCc3ccccc3)c2N)c1 | – | inconclusive: 3.66 µM [inhibitor, single point] |
| C=CCn1c(CSc2nc3ccccc3s2)nnc1SCC(=O)NCc1cccnc1 | – | inconclusive: 3.55 µM [activator, single point] |
| CCOc1ccc(N2CC(=O)SC2=S)cc1 | inactive: -19.4% | – |
| COc1ccc(COC(=O)C2=C(C)NC(=O)CC2c2cccc(Cl)c2Cl)cc1 (centres undefined) | inactive: -5.63% [at 46.1 µM] | – |
| COCc1cc(CN2CCN(C)CC2)c(O)c2ncccc12 | – | inconclusive: 9.2 µM [inhibitor, partial curve, poor fit] |
